Laboratory results: PubChem BioAssay AID256 (DTP/NCI, 2004)
The list shows only some results of the screen, not a fair sample: it is rich in T/C values a quarter to a half above the control, in often repeated tests (any T/C) and in doses without a T/C. Further doses and runs are listed elsewhere. T/C: endpoint of the treated group in % of that of the vehicle group. Some doses have a count of surviving animals in place of a T/C: the source files T/C as zero there, which appears to mark a toxic dose or a test without result, not a measured value. Some doses without a T/C left all or most animals alive at the check, yet need not have been tolerated: the source hardly ever lists a survival T/C far under the control, and the zero likely stands for such cases as well. Survivors were counted at the toxicity check, usually on the fifth day, unless a day is given; later deaths do not show. Schedules are NCI's codes, read here as Q, the interval in days (D) or hours (H), X, the number of doses. Some entries hold several experiments; their values stand side by side, smallest first. For survival time, this PubChem deposit counts one and a half times the control or more as active, and values a quarter to a half above the control carry no call in these data; other NCI protocols may use other cut-offs. Some T/C values are followed by the survivors on the day toxicity was checked, most often the fifth; without a count, all were alive then.

Test system: CD2F1 mice, L1210 leukemia ip, survival T/C
Experiment: NCI In Vivo Anticancer Drug Screen. Data for tumor model L1210 Leukemia (intraperitoneal) in CD2F1 (CDF1) mice
Conditions: higher T/C = longer survival
In short: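 Transplantable tumor in mice; compound-treated vs vehicle-treated groups. Read-out = treated/control ratio of the measured endpoint.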

[1] = T/C endpoint: mean survival time, dose: 200.0 mg/kg/injection, schedule: Q04DX003 (ip), vehicle: saline with Tween-80
[2] = T/C endpoint: mean survival time, dose: 400.0 mg/kg/injection, schedule: Q01DX009 (ip), vehicle: saline with Tween-80
[3] = T/C endpoint: mean survival time, dose: 100.0 mg/kg/injection, schedule: Q01DX009 (ip), vehicle: saline with Tween-80
[4] = T/C endpoint: mean survival time, dose: 400.0 mg/kg/injection, schedule: Q01DX009 (ip), vehicle: Klucel (hydroxypropylcellulose) (HPC)
[5] = T/C endpoint: median survival time, dose: 12.5 mg/kg/injection, schedule: Q01DX009 (ip), vehicle: Klucel (hydroxypropylcellulose) (HPC)

## O=C(C=C(C(F)(F)F)C(F)(F)F)c1ccccc1[N+](=O)[O-]
T/C endpoint: mean survival time, dose: 50.0 mg/kg/injection, schedule: Q04DX003 (ip), vehicle: other
  survivor count: 3 of 6
T/C endpoint: mean survival time, dose: 100.0 mg/kg/injection, schedule: Q04DX003 (ip), vehicle: other
  survivor count: 6 of 6
T/C endpoint: mean survival time, dose: 200.0 mg/kg/injection, schedule: Q04DX003 (ip), vehicle: other
  survivor count: 6 of 6
T/C endpoint: mean survival time, dose: 400.0 mg/kg/injection, schedule: Q04DX003 (ip), vehicle: other
  survivor count: 3 of 6

## N#CC(C#N)=Cc1ccc(Cl)cc1
[1]
  survivor count: 3 of 3
T/C endpoint: mean survival time, dose: 400.0 mg/kg/injection, schedule: Q04DX003 (ip), vehicle: saline with Tween-80
  survivor count: 0 of 3

## CCOC(=O)Cc1ccnc(C)c1
[2]
  survivor count: 2 of 6

## CCOC(=O)/C(C(C)=N)=C(\C)O
[2]
  survivor count: 2 of 6

## COc1cc([N+](=O)[O-])ccc1NC(=O)Nc1nccs1
[3]
  T/C: 97, 98, 104, 114 % of control
[2]
  survivor count: 3 of 3

## CSc1ccc2c(c1)C(N1CCN(C)CC1)Cc1ccccc1S2 (configuration not stated)
T/C endpoint: mean survival time, dose: 50.0 mg/kg/injection, schedule: Q01DX009 (ip), vehicle: saline with Tween-80
  survivor count: 3 of 6

## NC(N)=N/N=C\c1c2ccccc2cc2ccccc12
T/C endpoint: mean survival time, dose: 6.25 mg/kg/injection, schedule: Q01DX009 (ip), vehicle: water
  T/C: 134 % of control
T/C endpoint: mean survival time, dose: 12.5 mg/kg/injection, schedule: Q01DX009 (ip), vehicle: water
  survivor count: 2 of 6
T/C endpoint: mean survival time, dose: 25.0 mg/kg/injection, schedule: Q01DX009 (ip), vehicle: water
  survivor count: 1 of 6
T/C endpoint: mean survival time, dose: 50.0 mg/kg/injection, schedule: Q01DX009 (ip), vehicle: water
  survivor count: 0 of 6
T/C endpoint: mean survival time, dose: 100.0 mg/kg/injection, schedule: Q01DX009 (ip), vehicle: water
  survivor count: 0 of 6
T/C endpoint: mean survival time, dose: 200.0 mg/kg/injection, schedule: Q01DX009 (ip), vehicle: water
  survivor count: 0 of 6

## NC(=O)/C=C/C(N)=O
[2]
  survivor count: 0 of 6

## CCCCCCCCCCCCCCCC(=O)N(CCC#N)C(C)(C)CCC(C)(C)N(CCC#N)C(=O)CCCCCCCCCCCCCCC
[4]
  survivor count: 6 of 6

## O=C1/C(=C/c2ccc([N+](=O)[O-])cc2)CCc2ccccc21
[4]
  survivor count: 5 of 6

## O=S(=O)(Cl)C(Cl)(Cl)Cl
[1]
  survivor count: 3 of 6

## O=C(C[n+]1ccc2ccccc2c1)c1ccccc1
[3]
  survivor count: 0 of 6
T/C endpoint: mean survival time, dose: 100.0 mg/kg/injection, schedule: Q04DX003 (ip), vehicle: saline sonified
  survivor count: 0 of 6
T/C endpoint: mean survival time, dose: 200.0 mg/kg/injection, schedule: Q01DX009 (ip), vehicle: saline with Tween-80
  survivor count: 0 of 6
[2]
  survivor count: 0 of 6

## N#Cc1ccccc1NN=NCc1ccccc1
T/C endpoint: mean survival time, dose: 200.0 mg/kg/injection, schedule: Q01DX001 (ip), vehicle: saline with Tween-80
  survivor count: 6 of 6

## [Cl][Pt+2][Cl].[NH-]CC1(C[NH-])CCC1
T/C endpoint: mean survival time, dose: 3.12 mg/kg/injection, schedule: Q04DX003 (ip), vehicle: saline
  T/C: 144 % of control
T/C endpoint: mean survival time, dose: 12.5 mg/kg/injection, schedule: Q04DX003 (ip), vehicle: saline
  T/C: 125 % of control
T/C endpoint: mean survival time, dose: 25.0 mg/kg/injection, schedule: Q04DX003 (ip), vehicle: saline
  T/C: 132 % of control
T/C endpoint: mean survival time, dose: 200.0 mg/kg/injection, schedule: Q04DX003 (ip), vehicle: saline
  survivor count: 4 of 6
T/C endpoint: median survival time, dose: 0.4 mg/kg/injection, schedule: Q01DX009 (ip), vehicle: Klucel (hydroxypropylcellulose) (HPC)
  T/C: 125 % of control
T/C endpoint: median survival time, dose: 0.78 mg/kg/injection, schedule: Q01DX009 (ip), vehicle: Klucel (hydroxypropylcellulose) (HPC), evaluated on day 30
  T/C: 118 [9 of 10 alive], 128, 165 % of control
T/C endpoint: median survival time, dose: 0.78 mg/kg/injection, schedule: Q01DX009 (ip), vehicle: Klucel (hydroxypropylcellulose) (HPC), evaluated on day 60
  T/C: 213 % of control
T/C endpoint: median survival time, dose: 0.8 mg/kg/injection, schedule: Q01DX009 (ip), vehicle: Klucel (hydroxypropylcellulose) (HPC)
  T/C: 147 % of control
T/C endpoint: median survival time, dose: 1.56 mg/kg/injection, schedule: Q01DX009 (ip), vehicle: Klucel (hydroxypropylcellulose) (HPC), evaluated on day 30
  T/C: 185, 211, 259 % of control
T/C endpoint: median survival time, dose: 1.56 mg/kg/injection, schedule: Q01DX009 (ip), vehicle: Klucel (hydroxypropylcellulose) (HPC), evaluated on day 60
  T/C: 426 % of control
T/C endpoint: median survival time, dose: 6.0 mg/kg/injection, schedule: Q01DX009 (ip), vehicle: carboxymethylcellulose (CMC)
  T/C: 131 % of control
T/C endpoint: median survival time, dose: 6.25 mg/kg/injection, schedule: Q01DX009 (ip), vehicle: Klucel (hydroxypropylcellulose) (HPC), evaluated on day 30
  T/C: 116, 160, 188 % of control [9 of 10 alive]
T/C endpoint: median survival time, dose: 6.25 mg/kg/injection, schedule: Q01DX009 (ip), vehicle: Klucel (hydroxypropylcellulose) (HPC), evaluated on day 60
  T/C: 256 % of control
T/C endpoint: median survival time, dose: 6.25 mg/kg/injection, schedule: Q01DX009 (ip), vehicle: suspension in saline
  T/C: 125 % of control
[5]
  T/C: 91 and 158 % of control
  survivor count: 9 of 10 and 10 of 10
T/C endpoint: median survival time, dose: 12.5 mg/kg/injection, schedule: Q01DX009 (ip), vehicle: suspension in saline
  survivor count: 5 of 6
T/C endpoint: median survival time, dose: 25.0 mg/kg/injection, schedule: Q01DX009 (ip), vehicle: Klucel (hydroxypropylcellulose) (HPC)
  survivor count: 1 of 6
T/C endpoint: median survival time, dose: 25.0 mg/kg/injection, schedule: Q01DX009 (ip), vehicle: suspension in saline
  survivor count: 0 of 6
T/C endpoint: median survival time, dose: 50.0 mg/kg/injection, schedule: Q01DX009 (ip), vehicle: suspension in saline
  survivor count: 0 of 6
T/C endpoint: median survival time, dose: 100.0 mg/kg/injection, schedule: Q01DX009 (ip), vehicle: suspension in saline
  survivor count: 0 of 6
T/C endpoint: median survival time, dose: 200.0 mg/kg/injection, schedule: Q01DX009 (ip), vehicle: suspension in saline
  survivor count: 0 of 6

## CCN(CC)C(=O)N1CCN(c2ccccc2)CC1
T/C endpoint: mean survival time, dose: 400.0 mg/kg/injection, schedule: Q04DX003 (ip), vehicle: saline
  survivor count: 0 of 6

## C[CH2][Sn]([CH2]C)([O]S(C)(=O)=O)[O]S(C)(=O)=O
T/C endpoint: mean survival time, dose: 25.0 mg/kg/injection, schedule: Q01DX009 (ip), vehicle: saline
  survivor count: 0 of 6

## NC(=O)N/N=C1/CCCC2CCCCC12 (configuration not stated)
T/C endpoint: mean survival time, dose: 75.0 mg/kg/injection, schedule: Q04DX003 (ip), vehicle: saline with Tween-80
  survivor count: 6 of 6

## COc1ccc2nc3cc(Cl)ccc3c(Nc3ccc(NS(C)(=O)=O)cc3)c2n1
T/C endpoint: mean survival time, dose: 200.0 mg/kg/injection, schedule: Q01DX009 (ip), vehicle: other
  survivor count: 6 of 6
